{"sequences": {"note": "The chains behind the UniProt entries cited, without tags or fusion partners. Where a name states a change or a piece, a line headed by the entry shows the natural chain unless it says otherwise.", "UniProt O15067": "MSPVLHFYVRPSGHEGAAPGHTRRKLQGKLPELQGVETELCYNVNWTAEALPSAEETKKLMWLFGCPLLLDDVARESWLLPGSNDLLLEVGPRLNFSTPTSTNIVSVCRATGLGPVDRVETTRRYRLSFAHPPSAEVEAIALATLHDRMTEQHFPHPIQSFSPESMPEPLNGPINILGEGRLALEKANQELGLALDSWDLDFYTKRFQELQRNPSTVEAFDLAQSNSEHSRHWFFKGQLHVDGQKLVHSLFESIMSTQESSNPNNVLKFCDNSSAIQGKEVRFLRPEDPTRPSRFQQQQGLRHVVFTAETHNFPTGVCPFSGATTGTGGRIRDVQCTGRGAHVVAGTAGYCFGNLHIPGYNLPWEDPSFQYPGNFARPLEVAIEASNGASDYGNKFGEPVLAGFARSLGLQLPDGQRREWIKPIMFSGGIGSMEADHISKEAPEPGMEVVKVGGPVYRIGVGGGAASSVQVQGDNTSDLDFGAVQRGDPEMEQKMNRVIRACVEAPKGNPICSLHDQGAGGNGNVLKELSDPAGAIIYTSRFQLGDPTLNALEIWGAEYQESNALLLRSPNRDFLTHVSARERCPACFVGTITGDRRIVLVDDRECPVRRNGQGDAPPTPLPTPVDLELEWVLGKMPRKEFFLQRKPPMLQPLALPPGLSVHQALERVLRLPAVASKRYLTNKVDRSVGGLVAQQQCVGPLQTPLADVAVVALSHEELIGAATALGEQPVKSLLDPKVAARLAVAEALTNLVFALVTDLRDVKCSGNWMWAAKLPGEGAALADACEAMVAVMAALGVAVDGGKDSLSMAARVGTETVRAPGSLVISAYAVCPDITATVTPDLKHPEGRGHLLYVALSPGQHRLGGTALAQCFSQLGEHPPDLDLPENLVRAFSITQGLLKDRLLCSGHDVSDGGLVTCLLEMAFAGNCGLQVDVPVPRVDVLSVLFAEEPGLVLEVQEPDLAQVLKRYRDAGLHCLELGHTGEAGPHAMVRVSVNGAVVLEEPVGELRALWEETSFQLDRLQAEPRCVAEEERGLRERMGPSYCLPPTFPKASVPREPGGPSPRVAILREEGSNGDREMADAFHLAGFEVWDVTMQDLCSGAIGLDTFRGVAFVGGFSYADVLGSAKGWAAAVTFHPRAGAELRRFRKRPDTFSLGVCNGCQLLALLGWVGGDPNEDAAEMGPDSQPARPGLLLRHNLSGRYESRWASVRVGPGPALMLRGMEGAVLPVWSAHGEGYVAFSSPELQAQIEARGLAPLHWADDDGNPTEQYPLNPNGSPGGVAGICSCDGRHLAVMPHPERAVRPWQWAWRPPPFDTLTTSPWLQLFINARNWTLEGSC", "UniProt O43933": "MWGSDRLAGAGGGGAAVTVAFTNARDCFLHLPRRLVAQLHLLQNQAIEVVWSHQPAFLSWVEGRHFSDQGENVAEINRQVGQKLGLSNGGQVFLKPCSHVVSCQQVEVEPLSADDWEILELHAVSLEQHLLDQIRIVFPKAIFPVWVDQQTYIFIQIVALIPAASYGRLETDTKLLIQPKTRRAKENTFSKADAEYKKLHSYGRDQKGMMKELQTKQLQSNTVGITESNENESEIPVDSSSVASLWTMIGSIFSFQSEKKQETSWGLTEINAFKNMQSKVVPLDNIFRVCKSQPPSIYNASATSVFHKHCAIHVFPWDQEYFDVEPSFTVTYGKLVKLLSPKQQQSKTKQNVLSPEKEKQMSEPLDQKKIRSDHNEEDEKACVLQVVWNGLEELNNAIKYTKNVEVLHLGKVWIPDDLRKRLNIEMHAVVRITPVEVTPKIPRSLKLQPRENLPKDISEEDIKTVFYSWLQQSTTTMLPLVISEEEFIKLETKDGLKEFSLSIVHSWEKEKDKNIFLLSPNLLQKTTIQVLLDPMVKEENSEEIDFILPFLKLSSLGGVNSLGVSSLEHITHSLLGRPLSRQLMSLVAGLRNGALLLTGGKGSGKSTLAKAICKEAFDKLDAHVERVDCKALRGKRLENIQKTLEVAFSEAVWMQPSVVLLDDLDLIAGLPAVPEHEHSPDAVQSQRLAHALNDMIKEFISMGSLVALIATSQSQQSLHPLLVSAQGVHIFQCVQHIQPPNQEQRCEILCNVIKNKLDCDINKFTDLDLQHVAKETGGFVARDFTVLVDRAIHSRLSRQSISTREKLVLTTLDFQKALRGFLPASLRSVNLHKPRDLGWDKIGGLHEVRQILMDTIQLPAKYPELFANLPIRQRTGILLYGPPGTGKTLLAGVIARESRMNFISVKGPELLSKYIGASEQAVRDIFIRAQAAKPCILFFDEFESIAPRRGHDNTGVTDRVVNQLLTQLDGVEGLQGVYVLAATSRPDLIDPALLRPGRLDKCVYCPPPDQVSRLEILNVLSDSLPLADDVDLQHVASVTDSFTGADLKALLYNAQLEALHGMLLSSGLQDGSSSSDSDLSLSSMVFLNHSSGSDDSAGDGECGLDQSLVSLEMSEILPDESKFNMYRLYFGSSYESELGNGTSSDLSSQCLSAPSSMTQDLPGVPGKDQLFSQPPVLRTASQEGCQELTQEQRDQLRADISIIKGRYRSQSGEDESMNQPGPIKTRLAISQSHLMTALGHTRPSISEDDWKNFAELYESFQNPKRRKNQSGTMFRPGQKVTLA", "UniProt P36871": "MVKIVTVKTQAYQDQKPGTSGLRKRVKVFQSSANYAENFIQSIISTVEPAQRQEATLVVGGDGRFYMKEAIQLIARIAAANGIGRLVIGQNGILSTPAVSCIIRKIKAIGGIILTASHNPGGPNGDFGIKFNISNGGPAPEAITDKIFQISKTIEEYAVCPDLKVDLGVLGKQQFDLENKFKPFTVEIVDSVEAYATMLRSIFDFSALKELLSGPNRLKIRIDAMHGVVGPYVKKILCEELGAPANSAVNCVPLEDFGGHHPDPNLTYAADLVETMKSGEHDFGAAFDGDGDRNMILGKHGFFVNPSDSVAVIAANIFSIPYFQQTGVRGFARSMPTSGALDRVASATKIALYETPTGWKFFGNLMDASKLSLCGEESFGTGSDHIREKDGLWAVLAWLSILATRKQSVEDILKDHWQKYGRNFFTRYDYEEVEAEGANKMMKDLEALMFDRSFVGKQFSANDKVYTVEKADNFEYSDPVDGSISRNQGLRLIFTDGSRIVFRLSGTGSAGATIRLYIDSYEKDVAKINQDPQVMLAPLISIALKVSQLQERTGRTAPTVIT", "UniProt O43175": "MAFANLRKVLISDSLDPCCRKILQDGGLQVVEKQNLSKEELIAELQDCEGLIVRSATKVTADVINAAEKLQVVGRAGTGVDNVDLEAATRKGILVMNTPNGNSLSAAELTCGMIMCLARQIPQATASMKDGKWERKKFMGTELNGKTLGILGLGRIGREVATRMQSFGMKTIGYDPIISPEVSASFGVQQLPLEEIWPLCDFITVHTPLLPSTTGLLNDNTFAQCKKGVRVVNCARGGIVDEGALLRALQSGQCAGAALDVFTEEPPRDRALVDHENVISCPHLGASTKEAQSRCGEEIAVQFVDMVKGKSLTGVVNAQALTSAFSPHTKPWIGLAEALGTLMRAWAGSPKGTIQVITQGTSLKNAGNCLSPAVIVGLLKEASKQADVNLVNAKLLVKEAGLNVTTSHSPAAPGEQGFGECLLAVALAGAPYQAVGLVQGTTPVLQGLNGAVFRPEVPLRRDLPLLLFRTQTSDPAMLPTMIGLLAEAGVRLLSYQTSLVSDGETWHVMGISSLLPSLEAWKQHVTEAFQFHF", "UniProt Q9UPP1": "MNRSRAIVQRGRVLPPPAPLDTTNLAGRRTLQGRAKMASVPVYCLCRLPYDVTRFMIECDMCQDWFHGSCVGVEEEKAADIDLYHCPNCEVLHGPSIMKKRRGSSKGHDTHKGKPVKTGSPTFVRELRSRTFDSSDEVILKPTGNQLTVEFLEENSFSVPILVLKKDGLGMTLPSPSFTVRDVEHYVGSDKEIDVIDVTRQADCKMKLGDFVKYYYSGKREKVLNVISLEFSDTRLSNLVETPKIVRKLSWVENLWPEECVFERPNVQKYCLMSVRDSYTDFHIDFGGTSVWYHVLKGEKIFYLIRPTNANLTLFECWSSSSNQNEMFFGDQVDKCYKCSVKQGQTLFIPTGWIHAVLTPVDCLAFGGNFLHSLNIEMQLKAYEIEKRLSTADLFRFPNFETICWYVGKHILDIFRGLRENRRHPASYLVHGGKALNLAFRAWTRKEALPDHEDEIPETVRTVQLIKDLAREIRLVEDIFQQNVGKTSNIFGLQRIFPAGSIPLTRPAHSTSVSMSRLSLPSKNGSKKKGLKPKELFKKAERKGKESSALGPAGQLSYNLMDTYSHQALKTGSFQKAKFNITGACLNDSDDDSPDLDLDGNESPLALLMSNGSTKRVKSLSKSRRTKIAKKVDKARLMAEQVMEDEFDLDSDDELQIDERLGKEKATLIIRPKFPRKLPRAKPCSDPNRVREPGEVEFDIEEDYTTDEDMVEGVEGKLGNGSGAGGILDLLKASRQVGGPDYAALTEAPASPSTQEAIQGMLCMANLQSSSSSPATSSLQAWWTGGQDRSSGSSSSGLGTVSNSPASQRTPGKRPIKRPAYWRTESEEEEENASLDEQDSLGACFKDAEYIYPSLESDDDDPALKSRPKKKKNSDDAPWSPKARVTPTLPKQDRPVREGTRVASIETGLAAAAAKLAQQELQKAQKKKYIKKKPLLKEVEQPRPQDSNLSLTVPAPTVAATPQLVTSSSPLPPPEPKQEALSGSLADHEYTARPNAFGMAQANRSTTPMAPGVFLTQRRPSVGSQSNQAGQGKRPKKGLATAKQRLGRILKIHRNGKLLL", "UniProt Q8N2W9": "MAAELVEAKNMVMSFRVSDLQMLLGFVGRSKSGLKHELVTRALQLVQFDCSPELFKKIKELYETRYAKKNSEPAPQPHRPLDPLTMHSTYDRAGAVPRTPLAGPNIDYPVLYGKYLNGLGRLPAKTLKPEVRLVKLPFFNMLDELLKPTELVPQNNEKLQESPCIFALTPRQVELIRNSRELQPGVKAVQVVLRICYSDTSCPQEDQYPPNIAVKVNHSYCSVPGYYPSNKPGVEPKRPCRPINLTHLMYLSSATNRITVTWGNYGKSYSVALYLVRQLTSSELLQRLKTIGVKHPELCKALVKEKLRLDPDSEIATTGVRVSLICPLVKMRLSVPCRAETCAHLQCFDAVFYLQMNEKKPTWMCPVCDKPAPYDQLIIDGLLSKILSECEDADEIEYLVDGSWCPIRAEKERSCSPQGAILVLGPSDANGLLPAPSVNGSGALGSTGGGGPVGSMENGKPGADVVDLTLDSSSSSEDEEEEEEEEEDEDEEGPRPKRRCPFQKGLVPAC", "UniProt P07737, whole entry, looked up": "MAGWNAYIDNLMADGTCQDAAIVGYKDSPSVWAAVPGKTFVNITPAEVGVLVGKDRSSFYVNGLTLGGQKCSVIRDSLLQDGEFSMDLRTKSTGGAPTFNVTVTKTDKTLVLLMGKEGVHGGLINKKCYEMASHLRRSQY", "UniProt Q8IZL8": "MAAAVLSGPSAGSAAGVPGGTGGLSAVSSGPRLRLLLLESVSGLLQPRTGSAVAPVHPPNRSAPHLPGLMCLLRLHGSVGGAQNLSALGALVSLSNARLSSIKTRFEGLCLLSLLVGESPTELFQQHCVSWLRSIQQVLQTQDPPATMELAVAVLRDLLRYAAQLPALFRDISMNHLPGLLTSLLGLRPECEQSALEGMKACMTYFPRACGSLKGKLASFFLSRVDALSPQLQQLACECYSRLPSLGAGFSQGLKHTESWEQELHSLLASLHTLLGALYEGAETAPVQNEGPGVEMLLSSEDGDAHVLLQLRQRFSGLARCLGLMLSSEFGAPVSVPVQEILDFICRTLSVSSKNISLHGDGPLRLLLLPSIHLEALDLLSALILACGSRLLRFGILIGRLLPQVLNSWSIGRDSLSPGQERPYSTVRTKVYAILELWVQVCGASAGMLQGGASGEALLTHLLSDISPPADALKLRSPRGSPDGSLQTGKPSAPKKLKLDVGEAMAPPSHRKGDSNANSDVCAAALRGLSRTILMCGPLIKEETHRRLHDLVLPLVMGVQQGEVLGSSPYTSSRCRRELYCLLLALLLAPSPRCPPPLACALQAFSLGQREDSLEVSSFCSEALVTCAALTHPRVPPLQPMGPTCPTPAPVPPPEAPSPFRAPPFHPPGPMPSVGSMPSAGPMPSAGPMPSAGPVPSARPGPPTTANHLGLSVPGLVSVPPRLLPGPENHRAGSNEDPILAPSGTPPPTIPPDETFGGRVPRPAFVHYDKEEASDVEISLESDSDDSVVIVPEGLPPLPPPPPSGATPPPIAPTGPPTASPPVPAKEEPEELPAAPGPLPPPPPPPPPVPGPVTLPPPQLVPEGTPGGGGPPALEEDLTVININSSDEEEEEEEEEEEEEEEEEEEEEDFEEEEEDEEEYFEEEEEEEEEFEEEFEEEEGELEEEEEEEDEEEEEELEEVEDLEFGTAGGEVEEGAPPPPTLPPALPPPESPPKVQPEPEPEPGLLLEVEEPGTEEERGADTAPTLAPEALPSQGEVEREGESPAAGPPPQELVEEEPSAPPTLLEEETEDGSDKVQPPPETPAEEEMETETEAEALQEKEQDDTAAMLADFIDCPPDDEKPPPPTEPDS"}, "source": "the supplement of paper PMC12067093", "about": "“Discovery and optimisation of a covalent ligand for TRIM25 and its application to targeted protein ubiquitination” (Chemical Science, 2025)", "note": "Some of the results follow.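 Note: competitive profiling in live THP-1 cells: cysteine peptides tagged with an iodoacetamide desthiobiotin (IA-DTB) probe, intensity after compound treatment relative to DMSO-treated cells.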", "data": [{"compound": "Cc1cc(ccc1-c1ccccc1)C(=O)N1CCCN(CC1)C(=O)CCl [compound 10]", "experiment": "probe-labelled cysteine peptide fold change vs DMSO (competition) (log2 fold change); higher = less target engagement (more negative = stronger competition)", "details": "10 µM; THP-1; incubation time: 4 h", "values": [{"target": "PIK3CB_P42338_392_NDHIWNEPLEFDINICDLPR (UniProt P42338)", "probe-labelled cysteine peptide fold change": 0.119}, {"target": "PFAS_O15067_336_IRDVQCTGR (UniProt O15067)", "probe-labelled cysteine peptide fold change": -0.089}, {"target": "PGM2_Q96G03_484_ASYFICHDQETIK (UniProt Q96G03)", "probe-labelled cysteine peptide fold change": -0.0192}, {"target": "PGK1_P00558_50_FCLDNGAK (UniProt P00558)", "probe-labelled cysteine peptide fold change": 0.0573}, {"target": "PHIP_Q8WWQ0_954_RCPFVPQMGDEVYYFR (UniProt Q8WWQ0)", "probe-labelled cysteine peptide fold change": -0.204}, {"target": "PEX1_O43933_310_HCAIHVFPWDQEYFDVEPSFTVTYGK (UniProt O43933)", "probe-labelled cysteine peptide fold change": -0.0827}, {"target": "PGM1_P36871_374_LSLCGEESFGTGSDHIR (UniProt P36871)", "probe-labelled cysteine peptide fold change": 0.0361}, {"target": "PFAS_O15067_606_RIVLVDDRECPVR (UniProt O15067)", "probe-labelled cysteine peptide fold change": -0.103}, {"target": "PHGDH_O43175_281_ALVDHENVISCPHLGASTK (UniProt O43175)", "probe-labelled cysteine peptide fold change": -0.0468}, {"target": "PIK3CA_P42336_215_INHDCVPEQVIAEAIR (UniProt P42336)", "probe-labelled cysteine peptide fold change": 0.0827}, {"target": "PHIP_Q8WWQ0_1165_SLIYKPLDGEWGTNPRDEECER (UniProt Q8WWQ0)", "probe-labelled cysteine peptide fold change": 0.0409}, {"target": "PEPD_P12955_467_IEEDVVVTDSGIELLTCVPR (UniProt P12955)", "probe-labelled cysteine peptide fold change": 0.413}, {"target": "PHGDH_O43175_19_VLISDSLDPCCR (UniProt O43175)", "probe-labelled cysteine peptide fold change": -0.0779}, {"target": "PHKB_Q93100_1066_GTCSYLTK (UniProt Q93100)", "probe-labelled cysteine peptide fold change": 0.0117}, {"target": "PHF8_Q9UPP1-2_8_ASVPVYCLCR (UniProt Q9UPP1)", "probe-labelled cysteine peptide fold change": 0.206}, {"target": "PHF3_Q92576_186_EEVCMSLKPEYHK (UniProt Q92576)", "probe-labelled cysteine peptide fold change": -0.339}, {"target": "PIAS4_Q8N2W9_390+405_ILSECEDADEIEYLVDGSWCPIR (UniProt Q8N2W9)", "probe-labelled cysteine peptide fold change": -0.493}, {"target": "PHKA2_P46019_238_SVIHVLPDEVEHCQSILFSMLPR (UniProt P46019)", "probe-labelled cysteine peptide fold change": 0.0243}, {"target": "PIK3CB_P42338_626_EYAVGCLR (UniProt P42338)", "probe-labelled cysteine peptide fold change": 0.264}, {"target": "PELO_Q9BRX2_175_KGNCSQHDR (UniProt Q9BRX2)", "probe-labelled cysteine peptide fold change": 0.038}, {"target": "PGK1_P00558_316_TGQATVASGIPAGWMGLDCGPESSK (UniProt P00558)", "probe-labelled cysteine peptide fold change": -0.217}, {"target": "PFN1_P07737_71_CSVIRDSLLQDGEFSMDLR (UniProt P07737)", "probe-labelled cysteine peptide fold change": -0.162}, {"target": "PEPD_P12955_58_YCTDTGVLFR (UniProt P12955)", "probe-labelled cysteine peptide fold change": 0.0457}]}, {"compound": "Cc1cc(ccc1-c1ccccc1)C(=O)N1CCCN(CC1)C(=O)CCl [compound 10]", "experiment": "probe-labelled cysteine peptide fold change vs DMSO (competition) (log2 fold change); higher = less target engagement (more negative = stronger competition)", "details": "50 µM; THP-1; incubation time: 4 h", "values": [{"target": "PGM3_O95394_200_QASCSGDEYR (UniProt O95394)", "probe-labelled cysteine peptide fold change": -0.707}, {"target": "PHLPP1_O60346_859_LGDLDAMIFNNIEVLHCER (UniProt O60346)", "probe-labelled cysteine peptide fold change": 0.162}, {"target": "PFAS_O15067_1027_CVAEEER (UniProt O15067)", "probe-labelled cysteine peptide fold change": -0.0174}, {"target": "PFN1_P07737_128_CYEMASHLR (UniProt P07737)", "probe-labelled cysteine peptide fold change": 0.0955}, {"target": "PELP1_Q8IZL8_536_TILMCGPLIK (UniProt Q8IZL8)", "probe-labelled cysteine peptide fold change": 0.49}, {"target": "PHF11_Q9UIL8_135_NYHFFCAK (UniProt Q9UIL8)", "probe-labelled cysteine peptide fold change": 0.303}, {"target": "PIK3AP1_Q6ZUJ8_147_AISEDSGCDSVTDTEPEDEK (UniProt Q6ZUJ8)", "probe-labelled cysteine peptide fold change": -0.16}, {"target": "PELP1_Q8IZL8_645_VPPLQPMGPTCPTPAPVPPPEAPSPFR (UniProt Q8IZL8)", "probe-labelled cysteine peptide fold change": 0.0512}, {"target": "PGGT1B_P53609_338_WPDSHPDALHAYFGICGLSLMEESGICK (UniProt P53609)", "probe-labelled cysteine peptide fold change": -0.0361}, {"target": "PGK1_P00558_379+380_GCITIIGGGDTATCCAK (UniProt P00558)", "probe-labelled cysteine peptide fold change": -0.741}, {"target": "PFAS_O15067_66_KLMWLFGCPLLLDDVAR (UniProt O15067)", "probe-labelled cysteine peptide fold change": -0.429}, {"target": "PFKP_Q01813_641_NESCSENYTTDFIYQLYSEEGK (UniProt Q01813)", "probe-labelled cysteine peptide fold change": 0.111}, {"target": "PHF6_Q8IWS0_85_LMCSLCHCPGATIGCDVK (UniProt Q8IWS0)", "probe-labelled cysteine peptide fold change": 0.293}, {"target": "PGM2L1_Q6PCE3_125_GQVTSSCSSQR (UniProt Q6PCE3)", "probe-labelled cysteine peptide fold change": -0.0814}, {"target": "PES1_O00541_361_SLCIGATYDVTDSR (UniProt O00541)", "probe-labelled cysteine peptide fold change": -0.407}, {"target": "PHF10_Q8WUB8_454_TCIICGQPHHEEEMMFCDMCDR (UniProt Q8WUB8)", "probe-labelled cysteine peptide fold change": -0.186}, {"target": "PIK3CB_P42338_392_NDHIWNEPLEFDINICDLPR (UniProt P42338)", "probe-labelled cysteine peptide fold change": 0.395}, {"target": "PFAS_O15067_336_IRDVQCTGR (UniProt O15067)", "probe-labelled cysteine peptide fold change": -0.0693}, {"target": "PGM2_Q96G03_484_ASYFICHDQETIK (UniProt Q96G03)", "probe-labelled cysteine peptide fold change": 0.382}, {"target": "PGK1_P00558_50_FCLDNGAK (UniProt P00558)", "probe-labelled cysteine peptide fold change": -0.0506}, {"target": "PHIP_Q8WWQ0_954_RCPFVPQMGDEVYYFR (UniProt Q8WWQ0)", "probe-labelled cysteine peptide fold change": -0.506}, {"target": "PEX1_O43933_310_HCAIHVFPWDQEYFDVEPSFTVTYGK (UniProt O43933)", "probe-labelled cysteine peptide fold change": -0.0268}, {"target": "PGM1_P36871_374_LSLCGEESFGTGSDHIR (UniProt P36871)", "probe-labelled cysteine peptide fold change": -0.0554}, {"target": "PFAS_O15067_606_RIVLVDDRECPVR (UniProt O15067)", "probe-labelled cysteine peptide fold change": -0.192}, {"target": "PHGDH_O43175_281_ALVDHENVISCPHLGASTK (UniProt O43175)", "probe-labelled cysteine peptide fold change": -0.141}, {"target": "PIK3CA_P42336_215_INHDCVPEQVIAEAIR (UniProt P42336)", "probe-labelled cysteine peptide fold change": 0.255}, {"target": "PHIP_Q8WWQ0_1165_SLIYKPLDGEWGTNPRDEECER (UniProt Q8WWQ0)", "probe-labelled cysteine peptide fold change": -0.0627}, {"target": "PEPD_P12955_467_IEEDVVVTDSGIELLTCVPR (UniProt P12955)", "probe-labelled cysteine peptide fold change": 0.132}, {"target": "PHGDH_O43175_19_VLISDSLDPCCR (UniProt O43175)", "probe-labelled cysteine peptide fold change": -0.356}, {"target": "PHKB_Q93100_1066_GTCSYLTK (UniProt Q93100)", "probe-labelled cysteine peptide fold change": -0.0313}, {"target": "PHF8_Q9UPP1-2_8_ASVPVYCLCR (UniProt Q9UPP1)", "probe-labelled cysteine peptide fold change": 0.544}, {"target": "PHF3_Q92576_186_EEVCMSLKPEYHK (UniProt Q92576)", "probe-labelled cysteine peptide fold change": -0.228}, {"target": "PIAS4_Q8N2W9_390+405_ILSECEDADEIEYLVDGSWCPIR (UniProt Q8N2W9)", "probe-labelled cysteine peptide fold change": 0.228}, {"target": "PHKA2_P46019_238_SVIHVLPDEVEHCQSILFSMLPR (UniProt P46019)", "probe-labelled cysteine peptide fold change": -0.294}, {"target": "PIK3CB_P42338_626_EYAVGCLR (UniProt P42338)", "probe-labelled cysteine peptide fold change": 0.172}, {"target": "PELO_Q9BRX2_175_KGNCSQHDR (UniProt Q9BRX2)", "probe-labelled cysteine peptide fold change": -0.096}, {"target": "PGK1_P00558_316_TGQATVASGIPAGWMGLDCGPESSK (UniProt P00558)", "probe-labelled cysteine peptide fold change": 0.0673}, {"target": "PFN1_P07737_71_CSVIRDSLLQDGEFSMDLR (UniProt P07737)", "probe-labelled cysteine peptide fold change": -0.344}, {"target": "PEPD_P12955_58_YCTDTGVLFR (UniProt P12955)", "probe-labelled cysteine peptide fold change": 0.0174}]}]}
